These are yes or no findings as the source states them, for the method shown. Binding seen in cells or lysates may run through a third protein. A yes stands for co-enrichment or nearness to the bait. Other partners may have been found.
T1: Spt20-TAP (S. cerevisiae) (UniProt P50875)
T1 sequence: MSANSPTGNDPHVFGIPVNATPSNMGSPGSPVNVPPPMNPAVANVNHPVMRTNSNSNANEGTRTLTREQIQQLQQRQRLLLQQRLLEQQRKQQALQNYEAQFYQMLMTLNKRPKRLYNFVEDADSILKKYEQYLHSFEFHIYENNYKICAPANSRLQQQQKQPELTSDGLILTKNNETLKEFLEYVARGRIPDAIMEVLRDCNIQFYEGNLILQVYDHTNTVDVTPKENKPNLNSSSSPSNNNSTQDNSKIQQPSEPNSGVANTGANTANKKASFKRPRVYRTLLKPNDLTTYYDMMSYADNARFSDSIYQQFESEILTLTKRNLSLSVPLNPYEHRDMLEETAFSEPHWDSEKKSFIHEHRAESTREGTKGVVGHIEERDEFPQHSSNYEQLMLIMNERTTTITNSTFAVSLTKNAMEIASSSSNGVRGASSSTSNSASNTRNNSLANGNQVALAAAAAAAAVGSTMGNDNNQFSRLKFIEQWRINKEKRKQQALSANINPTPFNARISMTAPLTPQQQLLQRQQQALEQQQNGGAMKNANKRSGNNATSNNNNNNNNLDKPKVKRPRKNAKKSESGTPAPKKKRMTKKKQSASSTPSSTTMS

Amino acid sequences for entries named in this document (tags omitted). A change or cut given only in a name is not applied to a line headed by its entry.
UniProt P35177: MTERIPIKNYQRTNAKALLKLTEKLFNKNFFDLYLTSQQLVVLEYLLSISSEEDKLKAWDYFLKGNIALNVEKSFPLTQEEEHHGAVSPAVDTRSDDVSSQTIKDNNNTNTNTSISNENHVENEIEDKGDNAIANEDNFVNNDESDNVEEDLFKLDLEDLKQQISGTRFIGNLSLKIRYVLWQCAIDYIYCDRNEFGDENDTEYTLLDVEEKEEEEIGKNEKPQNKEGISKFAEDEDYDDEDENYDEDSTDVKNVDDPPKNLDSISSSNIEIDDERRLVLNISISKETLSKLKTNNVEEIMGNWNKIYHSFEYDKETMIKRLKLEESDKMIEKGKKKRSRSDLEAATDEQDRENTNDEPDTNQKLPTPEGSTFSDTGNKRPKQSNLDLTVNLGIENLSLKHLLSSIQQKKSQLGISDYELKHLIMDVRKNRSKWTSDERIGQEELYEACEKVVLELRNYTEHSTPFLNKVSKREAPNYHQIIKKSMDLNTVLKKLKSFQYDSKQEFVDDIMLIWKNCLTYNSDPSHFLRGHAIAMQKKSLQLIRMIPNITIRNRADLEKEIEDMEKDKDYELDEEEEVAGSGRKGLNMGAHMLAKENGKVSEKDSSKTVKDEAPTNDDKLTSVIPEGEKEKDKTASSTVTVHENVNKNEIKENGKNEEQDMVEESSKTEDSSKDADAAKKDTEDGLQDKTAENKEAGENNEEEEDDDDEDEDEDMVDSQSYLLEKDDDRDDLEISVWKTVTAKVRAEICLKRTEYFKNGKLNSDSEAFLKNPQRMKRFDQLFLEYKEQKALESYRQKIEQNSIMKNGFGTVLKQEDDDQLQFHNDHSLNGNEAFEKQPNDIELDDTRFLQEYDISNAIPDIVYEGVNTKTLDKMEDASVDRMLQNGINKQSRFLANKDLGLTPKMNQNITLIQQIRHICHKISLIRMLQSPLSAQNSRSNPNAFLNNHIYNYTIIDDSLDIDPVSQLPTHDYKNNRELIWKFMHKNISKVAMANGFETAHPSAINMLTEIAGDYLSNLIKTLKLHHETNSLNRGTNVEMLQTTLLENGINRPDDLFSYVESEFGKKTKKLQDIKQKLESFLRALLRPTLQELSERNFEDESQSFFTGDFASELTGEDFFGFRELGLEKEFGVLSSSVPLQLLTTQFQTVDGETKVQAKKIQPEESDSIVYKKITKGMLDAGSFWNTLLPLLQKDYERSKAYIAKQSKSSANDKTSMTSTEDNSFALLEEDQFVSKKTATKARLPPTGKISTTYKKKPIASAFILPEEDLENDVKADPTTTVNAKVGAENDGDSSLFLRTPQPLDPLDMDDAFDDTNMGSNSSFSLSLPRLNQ
UniProt P38811: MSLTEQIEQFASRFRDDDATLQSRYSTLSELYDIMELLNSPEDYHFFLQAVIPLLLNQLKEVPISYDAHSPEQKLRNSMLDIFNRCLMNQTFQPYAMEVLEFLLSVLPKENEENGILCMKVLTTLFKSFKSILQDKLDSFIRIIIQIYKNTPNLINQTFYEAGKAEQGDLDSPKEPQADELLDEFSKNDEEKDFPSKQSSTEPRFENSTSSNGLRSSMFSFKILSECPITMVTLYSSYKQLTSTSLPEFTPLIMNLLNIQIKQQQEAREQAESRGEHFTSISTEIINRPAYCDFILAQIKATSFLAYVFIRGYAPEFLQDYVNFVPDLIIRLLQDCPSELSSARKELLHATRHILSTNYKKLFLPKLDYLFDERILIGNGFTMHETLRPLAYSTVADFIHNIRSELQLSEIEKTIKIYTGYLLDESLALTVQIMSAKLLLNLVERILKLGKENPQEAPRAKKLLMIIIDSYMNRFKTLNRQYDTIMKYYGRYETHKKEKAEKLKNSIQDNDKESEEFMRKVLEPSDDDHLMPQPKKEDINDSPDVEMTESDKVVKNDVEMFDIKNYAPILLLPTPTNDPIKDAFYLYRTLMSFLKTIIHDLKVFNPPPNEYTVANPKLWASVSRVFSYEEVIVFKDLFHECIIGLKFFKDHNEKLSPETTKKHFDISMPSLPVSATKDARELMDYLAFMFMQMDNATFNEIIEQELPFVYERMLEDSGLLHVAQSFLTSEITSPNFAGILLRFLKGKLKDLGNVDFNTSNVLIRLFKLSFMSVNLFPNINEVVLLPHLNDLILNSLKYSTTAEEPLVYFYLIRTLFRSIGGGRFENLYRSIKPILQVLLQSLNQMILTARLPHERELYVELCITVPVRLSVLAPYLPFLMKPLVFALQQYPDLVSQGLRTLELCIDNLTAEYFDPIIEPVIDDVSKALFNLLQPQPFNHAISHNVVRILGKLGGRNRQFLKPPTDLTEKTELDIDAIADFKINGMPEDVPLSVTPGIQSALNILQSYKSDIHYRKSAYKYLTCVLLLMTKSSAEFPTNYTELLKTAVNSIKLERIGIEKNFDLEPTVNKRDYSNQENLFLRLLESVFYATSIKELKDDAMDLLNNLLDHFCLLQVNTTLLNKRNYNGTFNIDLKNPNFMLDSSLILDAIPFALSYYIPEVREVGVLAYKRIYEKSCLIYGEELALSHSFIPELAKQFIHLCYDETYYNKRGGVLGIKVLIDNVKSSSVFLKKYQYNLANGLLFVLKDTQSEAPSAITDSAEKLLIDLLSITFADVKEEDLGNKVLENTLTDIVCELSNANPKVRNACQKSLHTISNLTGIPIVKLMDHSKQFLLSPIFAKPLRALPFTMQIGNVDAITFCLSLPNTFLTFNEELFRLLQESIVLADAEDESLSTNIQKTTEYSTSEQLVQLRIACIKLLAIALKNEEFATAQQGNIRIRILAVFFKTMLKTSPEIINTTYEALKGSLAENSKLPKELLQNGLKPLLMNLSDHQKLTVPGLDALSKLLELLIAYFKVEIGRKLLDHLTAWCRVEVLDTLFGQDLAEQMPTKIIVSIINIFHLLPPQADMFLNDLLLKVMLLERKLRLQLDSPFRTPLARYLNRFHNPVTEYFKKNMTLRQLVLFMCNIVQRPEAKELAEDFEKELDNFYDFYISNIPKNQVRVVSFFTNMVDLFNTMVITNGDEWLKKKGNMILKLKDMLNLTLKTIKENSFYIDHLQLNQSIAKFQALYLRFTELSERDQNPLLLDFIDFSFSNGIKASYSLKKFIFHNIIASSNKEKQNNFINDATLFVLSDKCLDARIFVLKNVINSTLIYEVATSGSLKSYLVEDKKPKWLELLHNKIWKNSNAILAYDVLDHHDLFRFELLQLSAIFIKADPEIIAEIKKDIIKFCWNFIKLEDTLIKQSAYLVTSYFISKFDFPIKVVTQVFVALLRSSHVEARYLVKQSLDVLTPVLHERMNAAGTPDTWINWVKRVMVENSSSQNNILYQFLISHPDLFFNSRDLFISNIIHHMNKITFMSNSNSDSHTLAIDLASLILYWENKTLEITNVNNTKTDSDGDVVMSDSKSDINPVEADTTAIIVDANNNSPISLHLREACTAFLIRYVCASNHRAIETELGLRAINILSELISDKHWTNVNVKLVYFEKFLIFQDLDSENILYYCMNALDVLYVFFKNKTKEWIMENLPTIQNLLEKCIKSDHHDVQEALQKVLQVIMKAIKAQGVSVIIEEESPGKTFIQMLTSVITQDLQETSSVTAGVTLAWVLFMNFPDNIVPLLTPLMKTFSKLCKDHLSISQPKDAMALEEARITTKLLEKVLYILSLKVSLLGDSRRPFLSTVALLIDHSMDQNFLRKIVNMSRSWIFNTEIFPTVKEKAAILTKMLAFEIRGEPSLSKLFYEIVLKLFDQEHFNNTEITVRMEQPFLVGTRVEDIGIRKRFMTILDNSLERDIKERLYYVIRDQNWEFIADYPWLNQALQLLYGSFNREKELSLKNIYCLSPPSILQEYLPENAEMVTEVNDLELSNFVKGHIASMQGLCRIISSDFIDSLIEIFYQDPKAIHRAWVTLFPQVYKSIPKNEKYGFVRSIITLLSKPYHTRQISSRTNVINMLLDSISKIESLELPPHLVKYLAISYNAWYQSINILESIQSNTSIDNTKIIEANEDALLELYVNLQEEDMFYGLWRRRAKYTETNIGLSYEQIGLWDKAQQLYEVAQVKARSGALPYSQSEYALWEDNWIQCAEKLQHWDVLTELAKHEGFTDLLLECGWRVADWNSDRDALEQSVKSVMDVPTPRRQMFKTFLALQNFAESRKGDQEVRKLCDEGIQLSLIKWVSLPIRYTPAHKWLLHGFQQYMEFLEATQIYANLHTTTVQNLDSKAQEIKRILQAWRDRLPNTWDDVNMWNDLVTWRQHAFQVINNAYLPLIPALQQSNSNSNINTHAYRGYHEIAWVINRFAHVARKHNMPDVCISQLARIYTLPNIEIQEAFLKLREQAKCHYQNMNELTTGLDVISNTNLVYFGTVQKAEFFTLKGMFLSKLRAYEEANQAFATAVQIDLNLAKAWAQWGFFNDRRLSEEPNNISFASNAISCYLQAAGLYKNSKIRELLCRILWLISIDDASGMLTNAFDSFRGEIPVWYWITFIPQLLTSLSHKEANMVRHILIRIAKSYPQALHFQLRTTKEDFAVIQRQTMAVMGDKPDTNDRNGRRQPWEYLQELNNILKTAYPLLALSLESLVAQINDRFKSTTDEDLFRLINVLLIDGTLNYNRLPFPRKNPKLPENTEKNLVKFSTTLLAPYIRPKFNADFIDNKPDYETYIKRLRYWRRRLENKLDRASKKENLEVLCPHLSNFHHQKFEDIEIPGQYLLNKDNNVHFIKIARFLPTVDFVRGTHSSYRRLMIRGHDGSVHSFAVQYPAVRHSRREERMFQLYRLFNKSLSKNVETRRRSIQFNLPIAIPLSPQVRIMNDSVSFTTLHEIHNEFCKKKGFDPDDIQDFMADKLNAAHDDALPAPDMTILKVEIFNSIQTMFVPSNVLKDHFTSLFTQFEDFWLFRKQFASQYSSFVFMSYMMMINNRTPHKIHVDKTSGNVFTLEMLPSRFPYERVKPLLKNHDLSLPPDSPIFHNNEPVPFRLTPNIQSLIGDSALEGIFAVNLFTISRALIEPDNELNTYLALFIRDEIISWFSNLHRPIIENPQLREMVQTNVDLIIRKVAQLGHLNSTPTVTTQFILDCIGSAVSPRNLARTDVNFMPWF

B1: Spt8 (~80 kD species) (protein, UniProt P38915 1-602)
chain: MDEVDDILINNQVVDDEEDDEEMLSGLENDSKQDLEGNDDGGEDEEDDDDDDEDDDDDEDEREDDDEQEDDDGEDDAARMDKTATPTNEHQHDEQKAAAAGAGGAGDSGDAVTKIGSEDVKLSDVDGGVGSREASSSTHEASANGEVYEYYKHMLNAAQIADSYNIYPTAAIPIQTHVNALAVSRGLKYLFLGGSDGYIRKYDLLNTLEGKLSLTILQKHSLAESIQNAGILQSYWENEIPQKKSEMKLSANKTDYEPKVSPVHSLEVQSECLFILSGLQNGGITMQGVRYMEGSIAHYFKGRNGHTQIVNILRLNGQEDRFLSGSWDKRLLEWDLQTGDIVNEFKKSRSELSSLEMRPLYSSVDVSGNVNSGKENENADDDMDSLFGDEDEDEKQDAGNEPVETGDGSNGEENKEQISEESLNIVYDESVFMTSGLNGSVHIWDRRMTQSPALSLERGAGVPPWCLSACWGVDGDHVYAGRRNACVEQFDLKMPSKPIHNLKLPSISGPVSCVKAMPNNKHLLCASRDNIRLYNVEIAVDASNSTTKSSKVPFLIVPGHHGGIISNLYLDPTSRFIISTSGNRGWQGNSTDTTLIYDIDLE

Target: T1, Spt20-TAP (S. cerevisiae)
Assay: affinity purification with mass spectrometry

| binding | Molecule |
| --- | --- |
| binds | C-terminal truncation of Spt7 (~180 kD species) (from UniProt P35177 1-1141) (domain or fragment) |
| binds | Spt7 (full-length, ~200 kD species) (from UniProt P35177 1-1332) |
| binds | Tra1 (from UniProt P38811 1-3744) |
| binds | B1 |

Source: doi:10.1101/710020
